Data set [1] deals with Voltage-gated inwardly rectifying potassium channel KCNH2 (Homo sapiens, UniProt Q12809).
A short description of data set [2]: Thermodynamic solubility of the compound at pH 7.4. The settings on record: buffer.

Chains of the proteins cited; added tags and fusions are not shown. Lines headed by an entry give the natural chain unless they say otherwise; changes in a name come on top.
UniProt Q12809: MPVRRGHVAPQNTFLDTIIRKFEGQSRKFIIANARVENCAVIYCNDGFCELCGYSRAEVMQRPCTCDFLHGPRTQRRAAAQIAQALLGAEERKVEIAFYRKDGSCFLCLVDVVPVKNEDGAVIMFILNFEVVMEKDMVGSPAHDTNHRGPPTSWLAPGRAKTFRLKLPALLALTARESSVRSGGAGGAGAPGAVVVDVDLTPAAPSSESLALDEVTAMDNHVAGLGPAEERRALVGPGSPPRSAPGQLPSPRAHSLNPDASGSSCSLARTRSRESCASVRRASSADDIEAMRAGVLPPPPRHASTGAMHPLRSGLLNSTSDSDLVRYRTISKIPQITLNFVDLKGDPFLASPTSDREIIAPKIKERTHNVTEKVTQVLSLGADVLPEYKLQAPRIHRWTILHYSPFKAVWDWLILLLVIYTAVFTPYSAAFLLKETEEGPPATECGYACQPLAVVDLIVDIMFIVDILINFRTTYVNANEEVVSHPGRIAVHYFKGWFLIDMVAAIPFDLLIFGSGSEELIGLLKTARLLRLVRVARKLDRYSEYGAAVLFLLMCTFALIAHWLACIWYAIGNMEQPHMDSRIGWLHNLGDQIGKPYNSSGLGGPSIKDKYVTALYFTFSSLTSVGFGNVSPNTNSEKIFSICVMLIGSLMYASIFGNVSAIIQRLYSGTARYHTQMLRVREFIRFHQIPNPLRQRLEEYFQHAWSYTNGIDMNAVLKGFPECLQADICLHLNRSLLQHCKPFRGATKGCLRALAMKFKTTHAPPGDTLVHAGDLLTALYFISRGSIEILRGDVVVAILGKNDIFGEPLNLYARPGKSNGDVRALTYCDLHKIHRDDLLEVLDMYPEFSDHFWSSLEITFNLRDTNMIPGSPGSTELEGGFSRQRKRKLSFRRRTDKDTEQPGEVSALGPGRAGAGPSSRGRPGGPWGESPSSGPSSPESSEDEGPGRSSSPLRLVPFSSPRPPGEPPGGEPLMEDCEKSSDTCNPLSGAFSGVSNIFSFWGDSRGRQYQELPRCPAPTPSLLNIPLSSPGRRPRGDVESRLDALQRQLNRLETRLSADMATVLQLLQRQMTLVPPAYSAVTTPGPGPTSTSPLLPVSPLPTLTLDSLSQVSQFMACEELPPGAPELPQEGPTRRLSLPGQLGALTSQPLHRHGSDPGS

Converted amounts (≈) assume the structure as drawn.

Regarding `CCNC(=O)CC[C@@H](CO)N(C)C(=O)c1ccc2c(c1)c1c(n2C)CC[C@@H](C2CCOCC2)C1`, the IC50 (commonly the midpoint of a concentration-inhibition curve) in data set [1] was greater than 33 µM. Besides, the thermodynamic solubility (as a rule, the concentration in solution at equilibrium with solid) in data set [2] was 1930 µM (≈ 906 µg/mL).

For the origin of these results see ChEMBL document CHEMBL2029249, “N-Methyl-3-(tetrahydro-2H-pyran-4-yl)-2,3,4,9-tetrahydro-1H-carbazole-6-carboxamides as a novel class of cannabinoid receptors agonists with low CNS penetration” (Bioorg Med Chem Lett, 2012).
